Measurements: patent publication US20260183405A1, “SMALL MOLECULE-DRUG-CONJUGATES CLEAVABLE IN A TUMOR MICROENVIRONMENT” (priority 2022, published 2026)
Where two headings read alike, the source gives them in different places. Not every detail of the peptide structures is certain; ends, links or a residue may be inferred. At least one compound was matched to its structure with a doubt left.

How the values were obtained:
Experiment in all cases: Cytotoxicity in vitro in the presence and absence of elastase (MTT assay)
Format in all cases: cell-based
786-O = 786-O cells, 72 h incubation
Procedure: (§1) Cultivation of cells was performed according to standard procedures with the media recommended by the provider. The cells, in a total volume of 100 μL, were seeded in a 96-well plate with a white bottom (#3610). After a 24 h incubation period at 37° C. and 5% CO2, the medium was exchanged by adding 90 μL fresh medium. The treatment started by adding the test compound in 10 μL of culture medium to the cells in triplicates. Concentrations ranging from 10^−5 M to 10^−13 M were chosen. Two identically treated sets of samples were prepared. One set was treated with the test compound alone, whereas to the second set the compound and 10 nM elastase (NE) was added followed by a 72 h incubation period at 37° C. and 5% CO2. The proliferation was detected using the MTT assay (ATCC). At the end of the incubation period the MTT reagent was added to all samples for 4h. Lysis of the cells followed by addition of the detergent was done overnight. The formed dye was detected at 570 nm. The proliferation of untreated but otherwise identically handled cells was defined as the 100% value. The dose response curves allowed the determination of the respective IC50 values. […]

SUM149PT = SUM149PT cells, 72 h incubation
Procedure: as §1

NCI-H292 = NCI-H292 cells, 72 h incubation
Procedure: as §1

HT29 = HT29 cells, 72 h incubation
Procedure: as §1

[1] = compound alone, read-out: IC50 without neutrophil elastase
[2] = with 10 nM elastase (NE), read-out: IC50 with neutrophil elastase

SMILES: CCCNC(=O)Nc1cccc(S(=O)(=O)Nc2cccc([C@@H](CC(=O)O)NC(=O)Nc3ccc(NC(=O)NCCOCCOCCOCCC(=O)NCCCC[C@H](NC(=O)CCOCCOCCOCCNC(=O)Nc4ccc(NC(=O)N[C@H](CC(=O)O)c5cccc(NS(=O)(=O)c6cccc(NC(=O)NCCC)c6)c5)cc4)C(=O)NCCOCCOCCOCCC(=O)N[C@@H](CC(N)=O)C(=O)N4CCC[C@H]4C(=O)N[C@H](C(=O)NCCCN(C(=O)CO)[C@@H](c4cc(-c5cc(F)ccc5F)cn4Cc4ccccc4)C(C)(C)C)C(C)C)cc3)c2)c1 [Compound 18]
- IC50 (786-O; [1]): > 1000 nM
- IC50 (786-O; [2]): 1 to 9.9 nM
- IC50 (SUM149PT; [1]): 100 to 999 nM
- IC50 (SUM149PT; [2]): 0.1 to 1 nM
- IC50 (NCI-H292; [1]): > 1000 nM
- IC50 (NCI-H292; [2]): 0.1 to 1 nM
- IC50 (HT29; [1]): > 1000 nM
- IC50 (HT29; [2]): 0.1 to 1 nM

SMILES: CCc1c2c(nc3ccccc13)-c1cc3c(c(=O)n1C2)COC(=O)[C@@]3(CC)OC(=O)[C@@H](NC(=O)[C@@H]1CCCN1C(=O)[C@H](CC(=O)O)NC(=O)CCOCCOCCOCCNC(=O)NCCCC[C@H](NC(=O)N[C@@H](CCC(=O)O)C(=O)O)C(=O)O)C(C)C [Compound 5, tetrasodium (4S)-4,11-diethyl-3,14-dioxo-3,4,12,14-tetrahydro-1H-pyrano[3′,4′:6,7]indolizino[1,2-b]quinolin-4-yl 1-[(2S,23S,27S)-23,27,29-tricarboxylato-2-(carboxylatomethyl)-4,17,25-trioxo-7,10,13-trioxa-3,16,18,24,26-pentaazanonacosanan-1-oyl]-L-prolyl-L-valinate]
- IC50 (786-O; [1]): 100 to 999 nM
- IC50 (786-O; [2]): 1 to 9.9 nM
- IC50 (SUM149PT; [1]): 100 to 999 nM
- IC50 (SUM149PT; [2]): 1 to 9.9 nM
- IC50 (NCI-H292; [1]): 100 to 999 nM
- IC50 (NCI-H292; [2]): 1 to 9.9 nM
- IC50 (HT29; [1]): > 1000 nM
- IC50 (HT29; [2]): 10 to 99 nM

SMILES: CCCNC(=O)Nc1cccc(S(=O)(=O)Nc2cccc([C@@H](CC(=O)O)NC(=O)Nc3ccc(NC(=O)NCCOCCOCCOCCC(=O)N[C@@H](CC(=O)O)C(=O)N4CCC[C@H]4C(=O)N[C@H](C(=O)O[C@@H](c4ccccc4)[C@@H](C)NC(=O)[C@H](C)C(OC)[C@@H]4CCCN4C(=O)CC(OC)[C@H]([C@@H](C)CC)N(C)C(=O)[C@@H](NC(=O)[C@@H](NC)C(C)C)C(C)C)C(C)C)cc3)c2)c1 (some centres unmarked) [Compound 13]
- IC50 (786-O; [1]): 100 to 999 nM
- IC50 (786-O; [2]): 1 to 9.9 nM
- IC50 (SUM149PT; [1]): 10 to 99 nM
- IC50 (SUM149PT; [2]): 0.1 to 1 nM
- IC50 (NCI-H292; [1]): 10 to 99 nM
- IC50 (NCI-H292; [2]): 0.1 to 1 nM
- IC50 (HT29; [1]): 10 to 99 nM
- IC50 (HT29; [2]): 0.1 to 1 nM

SMILES: CCCNC(=O)Nc1cccc(S(=O)(=O)Nc2cccc([C@@H](CC(=O)O)NC(=O)Nc3ccc(NC(=O)NCCOCCOCCOCCC(=O)NCCCC[C@H](NC(=O)CCOCCOCCOCCNC(=O)Nc4ccc(NC(=O)N[C@H](CC(=O)O)c5cccc(NS(=O)(=O)c6cccc(NC(=O)NCCC)c6)c5)cc4)C(=O)NCCOCCOCCOCCC(=O)N[C@@H](CC(=O)O)C(=O)N4CCC[C@H]4C(=O)N[C@H](C(=O)N[C@@H](CCN(C(=O)CO)[C@@H](c4cc(-c5cc(F)ccc5F)cn4Cc4ccccc4)C(C)(C)C)C(=O)NC)C(C)C)cc3)c2)c1 [Compound 27]
- IC50 (786-O; [1]): > 1000 nM
- IC50 (786-O; [2]): 1 to 9.9 nM
- IC50 (SUM149PT; [1]): > 1000 nM
- IC50 (SUM149PT; [2]): 0.1 to 1 nM
- IC50 (NCI-H292; [1]): > 1000 nM
- IC50 (NCI-H292; [2]): 1 to 9.9 nM
- IC50 (HT29; [1]): > 1000 nM
- IC50 (HT29; [2]): 1 to 9.9 nM
